Source: publication PMC3254653
Positions count from the first letter of the chain named. Results are given in words; binding and its absence hold for the method and conditions named. In cells and extracts the contact can be indirect. Binding calls can cover weak binding; strength is not graded here. Where a sequence is shown, tags or fusion partners need not be part of it.

T1: Myc-Smo^SA (phosphorylation deficient form of Smo with three PKA sites mutated to Ala) (Drosophila) (UniProt P91682)
T1 sequence: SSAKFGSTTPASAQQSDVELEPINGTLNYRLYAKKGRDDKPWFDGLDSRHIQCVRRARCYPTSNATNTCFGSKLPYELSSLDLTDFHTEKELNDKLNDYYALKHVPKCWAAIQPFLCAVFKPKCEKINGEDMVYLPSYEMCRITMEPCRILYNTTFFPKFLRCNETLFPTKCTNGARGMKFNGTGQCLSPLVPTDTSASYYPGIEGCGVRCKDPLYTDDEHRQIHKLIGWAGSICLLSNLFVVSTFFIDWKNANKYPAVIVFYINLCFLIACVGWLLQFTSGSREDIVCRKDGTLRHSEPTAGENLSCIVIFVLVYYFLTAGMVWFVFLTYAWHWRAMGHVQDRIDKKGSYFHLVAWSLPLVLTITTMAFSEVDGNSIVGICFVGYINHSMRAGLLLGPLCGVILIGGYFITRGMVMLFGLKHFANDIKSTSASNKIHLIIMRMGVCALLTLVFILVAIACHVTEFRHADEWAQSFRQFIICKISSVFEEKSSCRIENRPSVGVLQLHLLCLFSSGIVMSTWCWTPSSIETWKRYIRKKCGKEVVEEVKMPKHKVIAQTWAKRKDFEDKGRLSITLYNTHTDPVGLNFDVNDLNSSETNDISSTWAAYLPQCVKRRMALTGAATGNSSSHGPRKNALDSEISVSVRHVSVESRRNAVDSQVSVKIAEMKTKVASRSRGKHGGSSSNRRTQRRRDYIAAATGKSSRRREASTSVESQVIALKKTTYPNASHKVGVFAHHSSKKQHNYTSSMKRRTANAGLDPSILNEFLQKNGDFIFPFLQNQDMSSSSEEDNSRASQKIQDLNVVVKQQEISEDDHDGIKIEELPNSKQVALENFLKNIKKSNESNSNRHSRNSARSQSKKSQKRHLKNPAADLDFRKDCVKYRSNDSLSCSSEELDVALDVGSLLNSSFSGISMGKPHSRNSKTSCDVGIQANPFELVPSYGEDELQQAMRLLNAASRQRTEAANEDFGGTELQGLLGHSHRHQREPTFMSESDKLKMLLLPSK

T2: Myc-tagged wild type Smoothened (Myc-Smo) (Drosophila) (UniProt P91682)
T2 sequence: T1 sequence with A636S, A656S, A709S

B1: C-terminally YFP-tagged Kurtz (Krz-YFP) (protein, UniProt Q9V393 1-470)
chain: MNGGGGGSGGANVSNGSSTNVTAAGSTGGGSAGDETGGDASSRRQATRVFKKSSSNGKITVYLGKRDFVDHVTHVDPIDGVVFIDPEYVKDRKVFGQVLAAFRYGREDLDVLGLTFRKDLYLAHEQIYPPMQLDRPMTRLQERLIKKLGPNAHPFYFEVPPYCPASVSLQPAPGDVGKSCGVDYELKAFVGENVEDKPHKRNSVRLTIRKVMYAPSKVGEQPSIEVSKEFMMKPNKIHLEATLDKELYHHGEKISVNVHVANNSNRTVKKIKVCVRQFADICLFSTAQYKSVVAEIESEDGCQVAPGFTLSKVFELCPLLANNKDKWGLALDGQLKHEDTNLASSTLITNPAQRESLGIMVHYKVKVKLLISSPLLNGDLVAELPFTLMHPKPEEEEHPLLGERSPRASLAGGGLPLVSMSDGETESATGGQDVPTTTNLIQLDDDEAQDDDIIFEDFARLRLKGAETEA

How the values were obtained:
[1] = target: T1, Myc-Smo^SA (phosphorylation deficient form of Smo with three PKA sites mutated to Ala) (Drosophila); assay: co-IP; S2 cells transfected with Fg-UBPY and Myc-tagged wild type Smo or Smo variants, treated with or without Hh-conditioned medium; Myc-Smo as bait, Western blot of lysates and immunoprecipitates
[2] = target: T2, Myc-tagged wild type Smoothened (Myc-Smo) (Drosophila); assay: as above
[3] = target: Myc-Smo^SD (phospho-mimetic form of Smo with three PKA/CK1 clusters mutated to Asp) (Drosophila) (UniProt P91682); assay: co-IP; S2 cells transfected with Krz-YFP and Myc-tagged wild type Smo or Smo variants, treated with or without Hh-conditioned medium; Myc-Smo as bait, Western blot of lysates and immunoprecipitates
[4] = target: Myc-Smo^CT (a Smo variant only containing its C-tail) (Drosophila); assay: as above

| Molecule | binding [1] | binding [2] | binding [3] | binding [4] |
| --- | --- | --- | --- | --- |
| flag-tagged UBPY (Fg-UBPY) (Drosophila) (enzyme) | binds | binds |  |  |
| B1 |  |  | binds | binds |
